Experimental data as given in US11938177B2, “Peptide vaccine formulations and use thereof for inducing an immune response” (The United States of America, as represented by the …, priority 2016, dated 2024).
At least one peptide structure holds a part that was inferred or is arguable (an end, a ring closure or a residue). Ends that are not written are not given here.

System: CD8 T cells
Assay: CD8 T cell responses to long peptide neoantigens Reps1 and Irgq admixed with adjuvant
Assay type: in vivo, C57BL/6 mice
Conditions: admixed with particulate TLR-7/8a (PP-7/8a)

GRVLELFRAAALLNSAVLQIMELCGATR [Irgq FS]
higher magnitude CD8+ T cell responses compared with soluble sequences delivering the same minimal epitopes: ~100 fold
